This assay addresses Flag-tagged mGluR2 protein (mGluR2-Flag) (UniProt Q14416). The experiment in a line: pull-down; only the target purified.

Sequences of proteins named here, by UniProt entry; tags and fusion partners are left off. Residues count along the entry.
UniProt Q14416, residues 19-872: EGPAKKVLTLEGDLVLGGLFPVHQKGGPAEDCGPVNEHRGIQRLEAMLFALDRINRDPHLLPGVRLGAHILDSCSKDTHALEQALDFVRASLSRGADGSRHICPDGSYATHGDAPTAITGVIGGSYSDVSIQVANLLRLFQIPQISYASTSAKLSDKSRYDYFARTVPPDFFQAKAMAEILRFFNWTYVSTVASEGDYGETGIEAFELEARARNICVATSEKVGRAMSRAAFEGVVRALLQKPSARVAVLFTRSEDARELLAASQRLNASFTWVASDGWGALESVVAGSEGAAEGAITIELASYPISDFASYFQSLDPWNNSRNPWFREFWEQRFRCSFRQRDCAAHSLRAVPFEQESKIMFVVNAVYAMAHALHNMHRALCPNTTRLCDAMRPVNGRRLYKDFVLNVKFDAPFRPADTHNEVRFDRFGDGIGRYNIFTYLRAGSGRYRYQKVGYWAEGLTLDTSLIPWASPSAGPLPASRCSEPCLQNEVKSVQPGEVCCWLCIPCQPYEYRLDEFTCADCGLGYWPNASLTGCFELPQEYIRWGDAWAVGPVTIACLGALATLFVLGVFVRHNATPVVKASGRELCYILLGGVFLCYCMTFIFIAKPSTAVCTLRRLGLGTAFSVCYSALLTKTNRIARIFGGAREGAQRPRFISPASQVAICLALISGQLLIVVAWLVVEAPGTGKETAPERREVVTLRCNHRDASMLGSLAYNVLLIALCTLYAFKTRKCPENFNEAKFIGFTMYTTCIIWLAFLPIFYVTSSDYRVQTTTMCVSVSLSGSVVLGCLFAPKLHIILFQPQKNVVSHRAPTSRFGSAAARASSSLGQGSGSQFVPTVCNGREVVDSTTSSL
UniProt P03524, residues 20-524: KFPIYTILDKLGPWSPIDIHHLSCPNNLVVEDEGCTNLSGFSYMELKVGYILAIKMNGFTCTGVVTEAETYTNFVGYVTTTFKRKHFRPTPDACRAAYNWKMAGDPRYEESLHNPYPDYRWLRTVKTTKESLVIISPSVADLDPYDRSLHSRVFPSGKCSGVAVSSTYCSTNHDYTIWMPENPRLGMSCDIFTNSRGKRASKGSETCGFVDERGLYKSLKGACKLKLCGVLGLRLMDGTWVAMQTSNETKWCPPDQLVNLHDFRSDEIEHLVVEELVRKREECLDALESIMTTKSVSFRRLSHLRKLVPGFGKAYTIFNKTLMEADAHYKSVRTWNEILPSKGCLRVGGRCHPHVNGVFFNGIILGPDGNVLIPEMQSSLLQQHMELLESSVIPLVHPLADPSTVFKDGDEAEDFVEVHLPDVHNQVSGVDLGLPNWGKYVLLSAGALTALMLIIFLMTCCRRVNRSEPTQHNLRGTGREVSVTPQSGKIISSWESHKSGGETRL

Results are given in words; binding and its absence hold for the method and conditions named. Binding seen in cells or lysates may run through a third protein. Some entries that bind do so weakly or less than the wild type.

In the case of ERA G-Myc (from UniProt P03524 20-524), the binding result is reported as “binds”.
